Some of the results follow. Most values lie at the level of the controls, where differences are scatter.
Compound: CN[C@@H]1C[C@H]2O[C@@](C)([C@@H]1OC)n1c3ccccc3c3c4c(c5c6ccccc6n2c5c31)C(=O)NC4 [staurosporine]
Assay: log2 fold change of tryptic peptide abundance, ligand vs vehicle (limited proteolysis) (log2 ratio); higher = more trypsin-susceptible (destabilized)
Settings: ligand concentration: 20 uM; sample: mouse liver crude lysate; replicate design: treated separately

The chains behind the UniProt entries cited, without tags or fusion partners. Where a name states a change or a piece, a line headed by the entry shows the natural chain unless it says otherwise.
UniProt Q61193: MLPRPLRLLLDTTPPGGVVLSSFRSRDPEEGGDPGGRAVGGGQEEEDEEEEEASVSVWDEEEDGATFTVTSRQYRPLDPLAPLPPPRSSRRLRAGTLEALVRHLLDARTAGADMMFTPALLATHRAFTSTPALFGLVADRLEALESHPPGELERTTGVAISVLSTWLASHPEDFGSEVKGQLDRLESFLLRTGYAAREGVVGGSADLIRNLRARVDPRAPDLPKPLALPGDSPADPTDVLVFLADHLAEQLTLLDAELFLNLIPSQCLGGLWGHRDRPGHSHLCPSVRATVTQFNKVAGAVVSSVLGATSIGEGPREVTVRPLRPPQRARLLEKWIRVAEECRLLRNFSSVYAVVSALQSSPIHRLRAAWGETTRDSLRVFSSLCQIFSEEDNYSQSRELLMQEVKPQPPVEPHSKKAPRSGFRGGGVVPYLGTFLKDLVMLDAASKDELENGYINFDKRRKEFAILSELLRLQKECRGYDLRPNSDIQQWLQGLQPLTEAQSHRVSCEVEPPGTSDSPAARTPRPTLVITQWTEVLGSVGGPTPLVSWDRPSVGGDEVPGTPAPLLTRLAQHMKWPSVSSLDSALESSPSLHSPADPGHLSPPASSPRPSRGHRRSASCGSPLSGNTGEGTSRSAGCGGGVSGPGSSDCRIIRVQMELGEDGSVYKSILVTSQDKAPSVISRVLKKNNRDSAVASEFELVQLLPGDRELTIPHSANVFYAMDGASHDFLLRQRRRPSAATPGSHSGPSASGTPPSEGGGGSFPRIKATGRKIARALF
UniProt Q5U5M8: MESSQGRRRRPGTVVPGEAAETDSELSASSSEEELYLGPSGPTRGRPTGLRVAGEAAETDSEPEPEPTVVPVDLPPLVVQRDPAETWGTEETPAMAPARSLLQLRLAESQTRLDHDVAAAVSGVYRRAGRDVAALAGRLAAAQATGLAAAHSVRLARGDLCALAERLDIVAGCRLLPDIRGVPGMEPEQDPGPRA
UniProt Q5U431: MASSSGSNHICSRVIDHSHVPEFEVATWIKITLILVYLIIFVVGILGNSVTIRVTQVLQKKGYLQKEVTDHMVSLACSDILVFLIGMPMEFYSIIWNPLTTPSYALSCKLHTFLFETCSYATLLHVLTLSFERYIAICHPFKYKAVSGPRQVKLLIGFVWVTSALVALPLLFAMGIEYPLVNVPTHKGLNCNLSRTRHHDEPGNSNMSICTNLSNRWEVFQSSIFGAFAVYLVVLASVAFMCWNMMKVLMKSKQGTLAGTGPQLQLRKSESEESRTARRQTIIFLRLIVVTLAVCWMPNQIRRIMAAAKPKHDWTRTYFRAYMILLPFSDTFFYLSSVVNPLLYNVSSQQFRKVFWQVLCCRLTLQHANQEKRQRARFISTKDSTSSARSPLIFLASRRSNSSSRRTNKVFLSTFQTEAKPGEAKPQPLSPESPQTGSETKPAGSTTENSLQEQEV
UniProt Q5NCR9: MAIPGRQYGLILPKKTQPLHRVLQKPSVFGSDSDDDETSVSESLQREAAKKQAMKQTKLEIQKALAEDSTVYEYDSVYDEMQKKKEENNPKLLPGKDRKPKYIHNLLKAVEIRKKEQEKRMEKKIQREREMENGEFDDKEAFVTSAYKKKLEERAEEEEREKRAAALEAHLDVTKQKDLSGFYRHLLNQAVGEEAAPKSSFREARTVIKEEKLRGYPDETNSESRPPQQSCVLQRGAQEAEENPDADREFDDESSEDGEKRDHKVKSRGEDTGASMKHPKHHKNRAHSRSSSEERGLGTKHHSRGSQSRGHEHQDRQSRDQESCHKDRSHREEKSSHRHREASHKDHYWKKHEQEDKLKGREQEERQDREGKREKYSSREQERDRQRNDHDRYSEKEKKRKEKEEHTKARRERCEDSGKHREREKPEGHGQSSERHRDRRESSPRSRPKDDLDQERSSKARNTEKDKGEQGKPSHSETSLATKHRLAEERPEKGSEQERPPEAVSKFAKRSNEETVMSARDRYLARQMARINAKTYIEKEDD
UniProt Q60610: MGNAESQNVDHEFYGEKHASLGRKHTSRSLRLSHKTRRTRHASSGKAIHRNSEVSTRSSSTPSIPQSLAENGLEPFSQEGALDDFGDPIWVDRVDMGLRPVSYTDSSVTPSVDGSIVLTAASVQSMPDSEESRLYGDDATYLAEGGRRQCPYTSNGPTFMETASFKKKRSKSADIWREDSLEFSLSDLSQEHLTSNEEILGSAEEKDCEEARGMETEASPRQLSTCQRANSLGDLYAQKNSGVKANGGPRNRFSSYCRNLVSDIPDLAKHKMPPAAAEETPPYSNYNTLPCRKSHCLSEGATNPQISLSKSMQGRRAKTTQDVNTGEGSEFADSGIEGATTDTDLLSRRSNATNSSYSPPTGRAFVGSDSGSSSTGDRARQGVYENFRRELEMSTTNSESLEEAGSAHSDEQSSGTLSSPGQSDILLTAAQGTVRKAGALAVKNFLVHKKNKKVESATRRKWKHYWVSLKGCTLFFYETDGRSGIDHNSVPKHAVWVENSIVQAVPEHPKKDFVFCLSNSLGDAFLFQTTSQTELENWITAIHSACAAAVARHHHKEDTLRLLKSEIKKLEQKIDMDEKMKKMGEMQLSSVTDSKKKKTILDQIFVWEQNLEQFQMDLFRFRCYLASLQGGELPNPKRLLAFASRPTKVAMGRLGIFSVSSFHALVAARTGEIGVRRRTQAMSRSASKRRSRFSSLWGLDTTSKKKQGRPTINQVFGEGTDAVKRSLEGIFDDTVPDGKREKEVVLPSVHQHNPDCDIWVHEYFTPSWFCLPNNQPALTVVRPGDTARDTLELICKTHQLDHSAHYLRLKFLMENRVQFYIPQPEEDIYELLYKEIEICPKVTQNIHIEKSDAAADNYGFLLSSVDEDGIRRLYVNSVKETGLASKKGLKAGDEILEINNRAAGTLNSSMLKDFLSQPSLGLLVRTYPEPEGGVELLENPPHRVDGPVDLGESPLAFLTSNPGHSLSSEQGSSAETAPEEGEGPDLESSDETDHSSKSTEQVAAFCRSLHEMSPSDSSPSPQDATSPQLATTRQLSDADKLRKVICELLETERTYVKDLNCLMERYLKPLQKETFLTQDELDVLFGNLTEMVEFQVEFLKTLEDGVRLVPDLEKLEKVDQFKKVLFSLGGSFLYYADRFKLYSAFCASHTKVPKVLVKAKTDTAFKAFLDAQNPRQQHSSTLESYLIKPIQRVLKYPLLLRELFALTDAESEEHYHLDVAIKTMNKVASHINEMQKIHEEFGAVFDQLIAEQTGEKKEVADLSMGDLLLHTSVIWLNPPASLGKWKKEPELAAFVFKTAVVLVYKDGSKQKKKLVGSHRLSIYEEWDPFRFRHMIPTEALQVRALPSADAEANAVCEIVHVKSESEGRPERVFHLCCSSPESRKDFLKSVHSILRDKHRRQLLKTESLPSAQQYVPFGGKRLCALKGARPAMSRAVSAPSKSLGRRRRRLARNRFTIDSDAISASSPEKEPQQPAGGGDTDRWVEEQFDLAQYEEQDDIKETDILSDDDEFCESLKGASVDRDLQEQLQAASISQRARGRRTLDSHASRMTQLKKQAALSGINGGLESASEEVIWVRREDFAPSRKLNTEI
UniProt Q5Y5T2: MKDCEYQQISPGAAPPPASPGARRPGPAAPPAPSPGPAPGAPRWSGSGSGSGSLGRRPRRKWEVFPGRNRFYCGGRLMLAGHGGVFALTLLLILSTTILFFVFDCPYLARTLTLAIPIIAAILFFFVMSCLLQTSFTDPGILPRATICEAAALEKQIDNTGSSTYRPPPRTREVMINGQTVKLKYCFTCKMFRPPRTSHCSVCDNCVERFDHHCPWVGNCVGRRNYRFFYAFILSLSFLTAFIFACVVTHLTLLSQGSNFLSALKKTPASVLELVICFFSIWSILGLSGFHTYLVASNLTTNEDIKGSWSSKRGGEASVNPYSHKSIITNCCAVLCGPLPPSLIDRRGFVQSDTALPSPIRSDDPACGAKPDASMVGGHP
UniProt Q5SSK3: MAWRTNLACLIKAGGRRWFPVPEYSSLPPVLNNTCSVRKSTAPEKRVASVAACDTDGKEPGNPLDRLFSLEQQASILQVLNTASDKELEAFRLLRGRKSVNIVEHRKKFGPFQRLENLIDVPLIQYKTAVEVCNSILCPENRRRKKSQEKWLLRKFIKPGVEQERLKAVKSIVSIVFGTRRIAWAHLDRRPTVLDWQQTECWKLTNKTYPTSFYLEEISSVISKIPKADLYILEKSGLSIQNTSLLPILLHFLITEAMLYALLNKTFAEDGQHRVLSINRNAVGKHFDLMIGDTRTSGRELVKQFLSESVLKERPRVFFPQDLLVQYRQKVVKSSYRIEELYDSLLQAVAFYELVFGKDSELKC
UniProt Q5NBX1, whole entry: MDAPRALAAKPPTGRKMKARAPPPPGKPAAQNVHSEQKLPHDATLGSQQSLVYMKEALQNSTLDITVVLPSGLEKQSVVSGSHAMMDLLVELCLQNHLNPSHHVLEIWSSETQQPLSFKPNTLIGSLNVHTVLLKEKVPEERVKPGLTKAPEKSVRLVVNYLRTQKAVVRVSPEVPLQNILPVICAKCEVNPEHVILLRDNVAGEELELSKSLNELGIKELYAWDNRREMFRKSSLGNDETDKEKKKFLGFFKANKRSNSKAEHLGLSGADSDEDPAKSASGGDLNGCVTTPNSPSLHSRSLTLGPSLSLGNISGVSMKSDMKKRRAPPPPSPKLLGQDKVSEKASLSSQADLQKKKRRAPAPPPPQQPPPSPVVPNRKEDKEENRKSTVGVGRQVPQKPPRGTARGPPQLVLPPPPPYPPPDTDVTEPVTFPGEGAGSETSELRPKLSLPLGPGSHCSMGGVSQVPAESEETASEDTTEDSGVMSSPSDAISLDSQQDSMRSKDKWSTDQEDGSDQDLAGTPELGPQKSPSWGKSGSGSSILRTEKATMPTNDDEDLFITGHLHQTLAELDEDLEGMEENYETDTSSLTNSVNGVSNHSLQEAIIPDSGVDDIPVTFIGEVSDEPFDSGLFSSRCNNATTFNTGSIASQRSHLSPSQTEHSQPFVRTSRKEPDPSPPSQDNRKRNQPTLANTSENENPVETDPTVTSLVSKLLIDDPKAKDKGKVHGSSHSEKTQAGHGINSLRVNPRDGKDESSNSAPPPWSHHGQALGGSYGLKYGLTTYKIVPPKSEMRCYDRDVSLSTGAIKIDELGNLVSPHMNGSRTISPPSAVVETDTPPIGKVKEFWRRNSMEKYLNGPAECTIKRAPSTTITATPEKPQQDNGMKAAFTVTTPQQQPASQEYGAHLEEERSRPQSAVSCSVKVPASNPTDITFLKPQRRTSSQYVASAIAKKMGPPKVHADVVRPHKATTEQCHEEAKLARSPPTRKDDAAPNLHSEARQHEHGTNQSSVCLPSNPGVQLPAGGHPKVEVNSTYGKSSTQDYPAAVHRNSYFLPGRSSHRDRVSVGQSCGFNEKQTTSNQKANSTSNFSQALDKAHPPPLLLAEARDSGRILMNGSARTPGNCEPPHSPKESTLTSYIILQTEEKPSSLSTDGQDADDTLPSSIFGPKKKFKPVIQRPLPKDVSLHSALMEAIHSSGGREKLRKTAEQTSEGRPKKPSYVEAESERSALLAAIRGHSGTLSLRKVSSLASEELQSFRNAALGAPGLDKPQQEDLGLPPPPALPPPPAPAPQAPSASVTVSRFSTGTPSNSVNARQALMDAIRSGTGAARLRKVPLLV
UniProt Q5XFZ0: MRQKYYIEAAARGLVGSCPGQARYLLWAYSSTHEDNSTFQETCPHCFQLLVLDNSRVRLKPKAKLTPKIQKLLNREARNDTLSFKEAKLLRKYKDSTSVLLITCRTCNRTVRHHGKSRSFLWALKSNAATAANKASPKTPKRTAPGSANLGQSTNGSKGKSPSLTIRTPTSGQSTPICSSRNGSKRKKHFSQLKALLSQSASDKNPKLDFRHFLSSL
UniProt Q60698: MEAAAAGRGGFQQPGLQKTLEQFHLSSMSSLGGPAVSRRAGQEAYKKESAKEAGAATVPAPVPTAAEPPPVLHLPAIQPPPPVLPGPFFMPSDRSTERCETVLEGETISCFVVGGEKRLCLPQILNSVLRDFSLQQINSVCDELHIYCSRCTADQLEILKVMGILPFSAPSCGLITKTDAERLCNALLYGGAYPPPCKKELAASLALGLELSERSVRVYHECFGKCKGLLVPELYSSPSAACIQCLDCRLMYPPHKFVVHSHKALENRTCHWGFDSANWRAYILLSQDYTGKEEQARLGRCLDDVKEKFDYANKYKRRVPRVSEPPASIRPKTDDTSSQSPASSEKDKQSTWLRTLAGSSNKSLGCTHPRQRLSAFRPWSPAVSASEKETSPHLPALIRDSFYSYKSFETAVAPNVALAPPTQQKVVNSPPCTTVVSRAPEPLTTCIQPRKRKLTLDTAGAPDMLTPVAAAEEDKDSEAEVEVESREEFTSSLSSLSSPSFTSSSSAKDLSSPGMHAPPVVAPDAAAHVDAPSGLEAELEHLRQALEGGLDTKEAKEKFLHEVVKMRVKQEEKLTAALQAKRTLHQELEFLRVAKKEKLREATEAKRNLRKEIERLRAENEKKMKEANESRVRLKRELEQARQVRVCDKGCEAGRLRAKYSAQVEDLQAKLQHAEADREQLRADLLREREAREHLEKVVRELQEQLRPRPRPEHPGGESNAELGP

Target	log2 fold change
UniProt Q5SDA5 (peptide sequence: EIIDRLK, peptide start residue: 759)	0.12
UniProt Q61193 (peptide sequence: SRDPEEGGDPGGR, peptide start residue: 25)	-0.204
UniProt Q5QR91 (peptide sequence: RVTVHLVYSER, peptide start residue: 79)	0.184
UniProt Q60778 (peptide sequence: TPLGSALLRPNPILAR, peptide start residue: 276)	-0.091
UniProt Q60770 (peptide sequence: SAEETFQLSR, peptide start residue: 464)	-0.295
UniProt Q5U5M8 (peptide sequence: GDLCALAER, peptide start residue: 158)	-0.346
UniProt Q5U431 (peptide sequence: SPLIFLASR, peptide start residue: 390)	-0.131
UniProt Q61009 (peptide sequence: GTVLQEAKL, peptide start residue: 501)	-0.196
UniProt Q5NCR9 (peptide sequence: TYIEKEDD, peptide start residue: 535)	-0.2
UniProt Q60610 (peptide sequence: VASHINEMQK, peptide start residue: 1307)	-0.0133
UniProt Q61210 (peptide sequence: QEVISELLVTEAAHVR, peptide start residue: 417)	0.409
UniProt Q60953 (peptide sequence: HFLSFLTTMHRPILACSR, peptide start residue: 670)	0.317
UniProt Q5U4C3 (peptide sequence: SASPGPPPAR, peptide start residue: 491)	-0.368
UniProt Q5Y5T2 (peptide sequence: SDDPACGAKPDASMVGGHP, peptide start residue: 362)	-0.122
UniProt Q5RJG7 (peptide sequence: SIIQRYGHK, peptide start residue: 105)	-0.125
UniProt Q60974 (peptide sequence: VYHENIK, peptide start residue: 274)	-0.305
UniProt Q5SSK3 (peptide sequence: SVNIVEHR, peptide start residue: 99)	-0.125
UniProt Q5SGK3 (peptide sequence: NMASLGGHVISR, peptide start residue: 353)	-0.0373

Target	log2 fold change
UniProt Q60936 (peptide sequence: IVSTLCKVR, peptide start residue: 260)	0.365
UniProt Q5NBX1 (peptide sequence: ILMNGSAR, peptide start residue: 1111)	0.307
UniProt Q60592 (peptide sequence: LLQDAHER, peptide start residue: 271)	-0.418
UniProt Q61216 (peptide sequence: HIDALEDKIDEEVR, peptide start residue: 490)	-0.269
UniProt Q5XFZ0 (peptide sequence: ALLSQSASDKNPK, peptide start residue: 195)	-0.181
UniProt Q60987 (peptide sequence: ADALGAK, peptide start residue: 113)	-0.238
UniProt Q60676 (peptide sequence: TECAETPRDEPPADGTLK, peptide start residue: 9)	0.253
UniProt Q5H8C4 (peptide sequence: FFNEDGVIRPYR, peptide start residue: 3033)	0.208
UniProt Q60715 (peptide sequence: GNLPGVQHK, peptide start residue: 151)	-0.171
UniProt Q60929 (peptide sequence: GDFHSPIVLGRPPNTEDR, peptide start residue: 466)	0.15
UniProt Q5NCX5 (peptide sequence: IAGTQGDMEK, peptide start residue: 1304)	0.177
UniProt Q5RJ54 (peptide sequence: LVQNSGLIEHDR, peptide start residue: 229)	-0.178
UniProt Q60698 (peptide sequence: TCHWGFDSANWR, peptide start residue: 269)	-0.175
UniProt Q60790 (peptide sequence: LSEVITDTGVVCHK, peptide start residue: 133)	-0.418
UniProt Q5SPW0 (peptide sequence: MLRDKIAQIDK, peptide start residue: 254)	0.717
UniProt Q60866 (peptide sequence: RVHFLVDEGYEDR, peptide start residue: 280)	-0.68
UniProt Q5SVQ0 (peptide sequence: SQQQPTPVTPK, peptide start residue: 82)	-0.0923

An excerpt of these results, with bars between the fields.
Target | log2 fold change
UniProt Q5QR91 (peptide sequence: RVTVHLVYSER, peptide start residue: 79) | 0.184
UniProt Q5U431 (peptide sequence: SPLIFLASR, peptide start residue: 390) | -0.131
UniProt Q60610 (peptide sequence: VASHINEMQK, peptide start residue: 1307) | -0.0133
UniProt Q5U4C3 (peptide sequence: SASPGPPPAR, peptide start residue: 491) | -0.368
UniProt Q5Y5T2 (peptide sequence: SDDPACGAKPDASMVGGHP, peptide start residue: 362) | -0.122
UniProt Q5RJG7 (peptide sequence: SIIQRYGHK, peptide start residue: 105) | -0.125
UniProt Q60974 (peptide sequence: VYHENIK, peptide start residue: 274) | -0.305
UniProt Q60929 (peptide sequence: GDFHSPIVLGRPPNTEDR, peptide start residue: 466) | 0.15
UniProt Q60698 (peptide sequence: TCHWGFDSANWR, peptide start residue: 269) | -0.175
UniProt Q60866 (peptide sequence: RVHFLVDEGYEDR, peptide start residue: 280) | -0.68

Source: the supplement of paper PMC12819154, “High-throughput peptide-centric local stability assay extends protein–ligand identification to membrane proteins, tissues and bacteria” (Nature Structural & Molecular Biology, 2025)
